Laboratory results from patent US20250297152A1, “FLUORINATED SUBSTITUTED OLEFIN REFRIGERANTS AND METHODS OF COOLING ELECTRONICS” (Honeywell International Inc., priority 2024, published 2025).

Assay: ODP

F/C=C\C(F)(C(F)(F)F)C(F)(F)C(F)(F)F (stereo not drawn) [cis-secBuFO, cis-1,3,4,4,5,5,5-heptafluoro-3-(trifluoromethyl)pent-1-ene]
ODP (Table 3): 0 | ODP (Table E1): 0

F/C=C\C(C(F)(F)F)(C(F)(F)F)C(F)(F)F [cis-tBuFO, cis-1,4,4,4-tetrafluoro-3,3-bis(trifluoromethyl)but-1-ene]
ODP (Table 3): 0 | ODP (Table E1): 0

F/C=C/C(F)(C(F)(F)F)C(F)(F)C(F)(F)F (stereo not drawn) [trans-secBuFO, trans-1,3,4,4,5,5,5-heptafluoro-3-(trifluoromethyl)pent-1-ene]
ODP (Table 3): 0 | ODP (Table E1): 0

F/C=C/C(C(F)(F)F)(C(F)(F)F)C(F)(F)F [trans-tBuFO, trans-1,4,4,4-tetrafluoro-3,3-bis(trifluoromethyl)but-1-ene]
ODP (Table 3): 0 | ODP (Table E1): 0
